Results from PMC4126343.
No constants are given. Whether binding was seen depends on the method and setting. In cells and extracts the contact can be indirect. Some binding calls cover weakened binding; strength is not graded here. Each block holds one molecule with its values, some of them ahead of it.

By UniProt entry, the sequences of proteins in these tests, tags left out. Where a name states a change or a piece, a line headed by the entry shows the natural chain unless it says otherwise.
UniProt P50750: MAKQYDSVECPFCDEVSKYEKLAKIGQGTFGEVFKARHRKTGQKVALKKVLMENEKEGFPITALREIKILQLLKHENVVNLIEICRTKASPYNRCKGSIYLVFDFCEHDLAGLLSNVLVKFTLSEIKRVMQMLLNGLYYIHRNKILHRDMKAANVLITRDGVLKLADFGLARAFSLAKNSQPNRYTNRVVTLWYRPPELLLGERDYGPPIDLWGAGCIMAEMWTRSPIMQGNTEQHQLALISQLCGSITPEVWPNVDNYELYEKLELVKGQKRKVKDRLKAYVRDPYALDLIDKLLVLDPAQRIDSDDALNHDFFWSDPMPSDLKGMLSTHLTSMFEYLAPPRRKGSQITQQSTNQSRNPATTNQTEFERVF
UniProt O00472: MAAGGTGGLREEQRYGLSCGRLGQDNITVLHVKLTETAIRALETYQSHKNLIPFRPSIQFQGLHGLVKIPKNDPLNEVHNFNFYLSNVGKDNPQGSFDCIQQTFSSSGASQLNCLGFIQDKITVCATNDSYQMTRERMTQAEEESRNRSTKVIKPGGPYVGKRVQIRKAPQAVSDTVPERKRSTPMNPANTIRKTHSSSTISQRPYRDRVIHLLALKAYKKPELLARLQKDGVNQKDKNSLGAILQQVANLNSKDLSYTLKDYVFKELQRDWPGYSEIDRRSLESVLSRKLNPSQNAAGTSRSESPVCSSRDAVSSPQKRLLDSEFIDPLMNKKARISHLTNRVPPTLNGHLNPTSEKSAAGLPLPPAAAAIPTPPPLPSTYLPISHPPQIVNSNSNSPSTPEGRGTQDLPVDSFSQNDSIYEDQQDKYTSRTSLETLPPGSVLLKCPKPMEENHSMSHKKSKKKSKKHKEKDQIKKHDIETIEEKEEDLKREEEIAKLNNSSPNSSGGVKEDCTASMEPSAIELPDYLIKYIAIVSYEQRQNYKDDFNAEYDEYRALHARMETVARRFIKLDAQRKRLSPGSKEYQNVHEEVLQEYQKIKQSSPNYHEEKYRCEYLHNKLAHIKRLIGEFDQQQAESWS
UniProt O94992: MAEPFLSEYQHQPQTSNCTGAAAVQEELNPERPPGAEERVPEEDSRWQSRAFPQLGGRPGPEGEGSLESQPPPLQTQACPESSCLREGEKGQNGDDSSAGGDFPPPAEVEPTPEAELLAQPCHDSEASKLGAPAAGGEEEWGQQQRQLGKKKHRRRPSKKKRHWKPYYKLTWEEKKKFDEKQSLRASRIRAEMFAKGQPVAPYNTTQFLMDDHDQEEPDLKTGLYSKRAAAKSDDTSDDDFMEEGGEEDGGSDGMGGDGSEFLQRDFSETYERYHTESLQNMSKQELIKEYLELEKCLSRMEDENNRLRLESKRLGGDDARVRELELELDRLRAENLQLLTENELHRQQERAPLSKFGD
UniProt P42568: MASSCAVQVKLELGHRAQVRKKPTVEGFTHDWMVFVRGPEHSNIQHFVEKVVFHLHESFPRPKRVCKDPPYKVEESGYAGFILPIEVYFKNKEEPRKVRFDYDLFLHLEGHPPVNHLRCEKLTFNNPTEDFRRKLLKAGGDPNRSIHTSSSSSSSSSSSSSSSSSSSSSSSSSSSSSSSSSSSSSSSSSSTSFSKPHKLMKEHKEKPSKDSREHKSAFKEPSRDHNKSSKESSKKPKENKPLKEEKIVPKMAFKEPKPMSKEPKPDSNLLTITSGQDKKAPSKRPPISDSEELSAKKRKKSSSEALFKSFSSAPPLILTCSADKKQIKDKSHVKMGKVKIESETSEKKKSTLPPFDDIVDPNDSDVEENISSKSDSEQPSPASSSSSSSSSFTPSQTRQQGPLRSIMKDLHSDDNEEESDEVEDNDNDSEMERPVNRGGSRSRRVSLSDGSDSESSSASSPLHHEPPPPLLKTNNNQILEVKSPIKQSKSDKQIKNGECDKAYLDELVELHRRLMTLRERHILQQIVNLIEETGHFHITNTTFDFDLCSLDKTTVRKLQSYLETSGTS

Biological target: cyclin-dependent kinase 9 (CDK9) (human (endogenous in T47D)) (UniProt P50750)
Experiment: co-IP; anti-CDK9 immunoprecipitation from nuclear extracts of T47D control and shLARP7 (LARP7 knock-down) cells; 4°C overnight, protein A beads 2 hr, washed with buffer D containing 0.3 M KCl, eluted with 0.1 M glycine pH 2.0; Western blotting

Molecule: ELL2 (from UniProt O00472 1-640)
binding: binds

B1: AFF4 (protein, UniProt Q9UHB7 1-1163)
chain: MNREDRNVLRMKERERRNQEIQQGEDAFPPSSPLFAEPYKVTSKEDKLSSRIQSMLGNYDEMKDFIGDRSIPKLVAIPKPTVPPSADEKSNPNFFEQRHGGSHQSSKWTPVGPAPSTSQSQKRSSGLQSGHSSQRTSAGSSSGTNSSGQRHDRESYNNSGSSSRKKGQHGSEHSKSRSSSPGKPQAVSSLNSSHSRSHGNDHHSKEHQRSKSPRDPDANWDSPSRVPFSSGQHSTQSFPPSLMSKSNSMLQKPTAYVRPMDGQESMEPKLSSEHYSSQSHGNSMTELKPSSKAHLTKLKIPSQPLDASASGDVSCVDEILKEMTHSWPPPLTAIHTPCKTEPSKFPFPTKESQQSNFGTGEQKRYNPSKTSNGHQSKSMLKDDLKLSSSEDSDGEQDCDKTMPRSTPGSNSEPSHHNSEGADNSRDDSSSHSGSESSSGSDSESESSSSDSEANEPSQSASPEPEPPPTNKWQLDNWLNKVNPHKVSPASSVDSNIPSSQGYKKEGREQGTGNSYTDTSGPKETSSATPGRDSKTIQKGSESGRGRQKSPAQSDSTTQRRTVGKKQPKKAEKAAAEEPRGGLKIESETPVDLASSMPSSRHKAATKGSRKPNIKKESKSSPRPTAEKKKYKSTSKSSQKSREIIETDTSSSDSDESESLPPSSQTPKYPESNRTPVKPSSVEEEDSFFRQRMFSPMEEKELLSPLSEPDDRYPLIVKIDLNLLTRIPGKPYKETEPPKGEKKNVPEKHTREAQKQASEKVSNKGKRKHKNEDDNRASESKKPKTEDKNSAGHKPSSNRESSKQSAAKEKDLLPSPAGPVPSKDPKTEHGSRKRTISQSSSLKSSSNSNKETSGSSKNSSSTSKQKKTEGKTSSSSKEVKEKAPSSSSNCPPSAPTLDSSKPRRTKLVFDDRNYSADHYLQEAKKLKHNADALSDRFEKAVYYLDAVVSFIECGNALEKNAQESKSPFPMYSETVDLIKYTMKLKNYLAPDATAADKRLTVLCLRCESLLYLRLFKLKKENALKYSKTLTEHLKNSYNNSQAPSPGLGSKAVGMPSPVSPKLSPGNSGNYSSGASSASASGSSVTIPQKIHQMAASYVQVTSNFLYATEIWDQAEQLSKEQKEFFAELDKVMGPLIFNASIMTDLVRYTRQGLHWLRQDAKLIS
binding: binds

Further lines, results first:

binding: binds
Molecule: HEXIM1 (from UniProt O94992 1-359)

binding: binds
Molecule: AF9 (from UniProt P42568 1-568)

binding: binds
B2: MePCE (protein, UniProt Q7L2J0 1-689)
chain: MIEMAAEKEPFLVPAPPPPLKDESGGGGGPTVPPHQEAASGELRGGTERGPGRCAPSAGSPAAAVGRESPGAAATSSSGPQAQQHRGGGPQAQSHGEARLSDPPGRAAPPDVGEERRGGGGTELGPPAPPRPRNGYQPHRPPGGGGGKRRNSCNVGGGGGGFKHPAFKRRRRVNSDCDSVLPSNFLLGGNIFDPLNLNSLLDEEVSRTLNAETPKSSPLPAKGRDPVEILIPKDITDPLSLNTCTDEGHVVLASPLKTGRKRHRHRGQHHQQQQAAGGSESHPVPPTAPLTPLLHGEGASQQPRHRGQNRDAPQPYELNTAINCRDEVVSPLPSALQGPSGSLSAPPAASVISAPPSSSSRHRKRRRTSSKSEAGARGGGQGSKEKGRGSWGGRHHHHHPLPAAGFKKQQRKFQYGNYCKYYGYRNPSCEDGRLRVLKPEWFRGRDVLDLGCNVGHLTLSIACKWGPSRMVGLDIDSRLIHSARQNIRHYLSEELRLPPQTLEGDPGAEGEEGTTTVRKRSCFPASLTASRGPIAAPQVPLDGADTSVFPNNVVFVTGNYVLDRDDLVEAQTPEYDVVLCLSLTKWVHLNWGDEGLKRMFRRIYRHLRPGGILVLEPQPWSSYGKRKTLTETIYKNYYRIQLKPEQFSSYLTSPDVGFSSYELVATPHNTSKGFQRPVYLFHKARSPSH
